The target of this test is NLRC4 (rat (endogenous in Sprague-Dawley rat brain)) (UniProt F1M649). The test is described as follows: co-IP; antibody on magnetic beads incubated with rat brain tissue sample (peri-hematoma area, 72 h after ICH), Western blot of the precipitate; groups: sham, ICH, ICH + GNE7915, ICH + vehicle, ICH + shRGS2, ICH + NC.

The chains behind the UniProt entries cited, without tags or fusion partners.
UniProt F1M649: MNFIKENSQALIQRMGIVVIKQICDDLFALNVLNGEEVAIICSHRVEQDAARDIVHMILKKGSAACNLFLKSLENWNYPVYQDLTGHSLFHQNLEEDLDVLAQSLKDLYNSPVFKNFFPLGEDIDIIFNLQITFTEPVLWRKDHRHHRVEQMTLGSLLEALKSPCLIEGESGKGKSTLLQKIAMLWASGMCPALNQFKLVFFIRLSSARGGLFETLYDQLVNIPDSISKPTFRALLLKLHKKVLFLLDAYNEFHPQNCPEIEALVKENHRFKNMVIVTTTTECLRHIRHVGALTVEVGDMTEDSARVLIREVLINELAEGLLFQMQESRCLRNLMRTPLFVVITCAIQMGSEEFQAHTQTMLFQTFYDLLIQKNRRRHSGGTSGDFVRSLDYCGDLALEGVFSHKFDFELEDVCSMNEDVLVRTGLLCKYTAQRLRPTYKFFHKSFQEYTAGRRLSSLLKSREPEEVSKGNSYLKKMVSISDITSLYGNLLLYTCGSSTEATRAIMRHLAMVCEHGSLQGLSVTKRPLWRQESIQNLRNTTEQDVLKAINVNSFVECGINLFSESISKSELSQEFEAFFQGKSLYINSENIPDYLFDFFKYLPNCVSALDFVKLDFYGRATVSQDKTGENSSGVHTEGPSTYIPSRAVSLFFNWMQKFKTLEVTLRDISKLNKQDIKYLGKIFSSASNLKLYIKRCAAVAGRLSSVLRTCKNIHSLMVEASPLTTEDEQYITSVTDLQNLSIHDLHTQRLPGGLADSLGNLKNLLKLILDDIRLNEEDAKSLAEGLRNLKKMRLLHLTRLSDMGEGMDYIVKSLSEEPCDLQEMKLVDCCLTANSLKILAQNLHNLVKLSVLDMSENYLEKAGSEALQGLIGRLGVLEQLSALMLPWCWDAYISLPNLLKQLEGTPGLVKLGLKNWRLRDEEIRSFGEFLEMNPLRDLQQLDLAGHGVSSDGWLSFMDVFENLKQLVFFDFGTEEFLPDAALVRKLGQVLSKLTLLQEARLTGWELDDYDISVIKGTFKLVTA

This passage reports binding results from paper PMC8639719.

Results are given in words; binding and its absence hold for the method and conditions named. In cells and extracts the contact can be indirect. Some results given as binding are weak or reduced against the parent protein; the word gives no strength.

B1: pro-caspase-1 (protein, UniProt P43527 1-402)
chain: MADKVLRAKRKQFINSVSVGTINGLLDELLEKRVLNQEEMDTIKLANITVMEKARDLCDHVTKKGPRASQMFITYICNEDCYLAEILELQSGPSAETVFVTEDSKGGHPFSSETKEKLNKEGGAFPGPSGSLKFCPLEIAQKLWKENHSEIYPIMKTPTRTRLALIICNTDFQHLSRRVGADVDLREMKLLLQDLGYTVKVKENLTALEMTKELKEFAACPEHKTSDSTFLVFMSHGLQEGICGITYSNEVADILKVDTIFQMMNTLKCPSLKDKPKVIIIQACRGEKQGVVLLKDSVGNSEEGFLTDAIFEDDGIKKAHIEKDFIAFCSSTPDNVSWRHPVRGSLFIESLIKHMKEYAWSCDLEDIFRKVRFSFEQPDSRLQMPTTERVTLTKRFYLFPGH
Turning to B1, the binding entry is recorded as “binds”.
